Experimental data published in the supplement of paper PMC10849652.
Some of the results follow.

By UniProt entry, the sequences of proteins in these tests, tags left out. Where a name states a change or a piece, a line headed by the entry shows the natural chain unless it says otherwise.
UniProt Q9UMR2: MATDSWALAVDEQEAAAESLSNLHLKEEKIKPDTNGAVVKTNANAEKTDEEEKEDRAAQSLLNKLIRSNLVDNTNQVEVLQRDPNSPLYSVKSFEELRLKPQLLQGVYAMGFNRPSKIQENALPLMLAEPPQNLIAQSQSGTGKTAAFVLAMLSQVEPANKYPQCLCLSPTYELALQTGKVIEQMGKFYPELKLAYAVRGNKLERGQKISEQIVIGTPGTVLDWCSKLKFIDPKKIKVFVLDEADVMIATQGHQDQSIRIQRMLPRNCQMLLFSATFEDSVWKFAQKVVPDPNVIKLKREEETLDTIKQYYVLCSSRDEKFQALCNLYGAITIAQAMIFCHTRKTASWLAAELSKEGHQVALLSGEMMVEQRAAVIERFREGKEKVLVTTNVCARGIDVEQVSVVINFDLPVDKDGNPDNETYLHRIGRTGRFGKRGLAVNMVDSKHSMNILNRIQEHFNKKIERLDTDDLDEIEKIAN
UniProt Q9NYC9: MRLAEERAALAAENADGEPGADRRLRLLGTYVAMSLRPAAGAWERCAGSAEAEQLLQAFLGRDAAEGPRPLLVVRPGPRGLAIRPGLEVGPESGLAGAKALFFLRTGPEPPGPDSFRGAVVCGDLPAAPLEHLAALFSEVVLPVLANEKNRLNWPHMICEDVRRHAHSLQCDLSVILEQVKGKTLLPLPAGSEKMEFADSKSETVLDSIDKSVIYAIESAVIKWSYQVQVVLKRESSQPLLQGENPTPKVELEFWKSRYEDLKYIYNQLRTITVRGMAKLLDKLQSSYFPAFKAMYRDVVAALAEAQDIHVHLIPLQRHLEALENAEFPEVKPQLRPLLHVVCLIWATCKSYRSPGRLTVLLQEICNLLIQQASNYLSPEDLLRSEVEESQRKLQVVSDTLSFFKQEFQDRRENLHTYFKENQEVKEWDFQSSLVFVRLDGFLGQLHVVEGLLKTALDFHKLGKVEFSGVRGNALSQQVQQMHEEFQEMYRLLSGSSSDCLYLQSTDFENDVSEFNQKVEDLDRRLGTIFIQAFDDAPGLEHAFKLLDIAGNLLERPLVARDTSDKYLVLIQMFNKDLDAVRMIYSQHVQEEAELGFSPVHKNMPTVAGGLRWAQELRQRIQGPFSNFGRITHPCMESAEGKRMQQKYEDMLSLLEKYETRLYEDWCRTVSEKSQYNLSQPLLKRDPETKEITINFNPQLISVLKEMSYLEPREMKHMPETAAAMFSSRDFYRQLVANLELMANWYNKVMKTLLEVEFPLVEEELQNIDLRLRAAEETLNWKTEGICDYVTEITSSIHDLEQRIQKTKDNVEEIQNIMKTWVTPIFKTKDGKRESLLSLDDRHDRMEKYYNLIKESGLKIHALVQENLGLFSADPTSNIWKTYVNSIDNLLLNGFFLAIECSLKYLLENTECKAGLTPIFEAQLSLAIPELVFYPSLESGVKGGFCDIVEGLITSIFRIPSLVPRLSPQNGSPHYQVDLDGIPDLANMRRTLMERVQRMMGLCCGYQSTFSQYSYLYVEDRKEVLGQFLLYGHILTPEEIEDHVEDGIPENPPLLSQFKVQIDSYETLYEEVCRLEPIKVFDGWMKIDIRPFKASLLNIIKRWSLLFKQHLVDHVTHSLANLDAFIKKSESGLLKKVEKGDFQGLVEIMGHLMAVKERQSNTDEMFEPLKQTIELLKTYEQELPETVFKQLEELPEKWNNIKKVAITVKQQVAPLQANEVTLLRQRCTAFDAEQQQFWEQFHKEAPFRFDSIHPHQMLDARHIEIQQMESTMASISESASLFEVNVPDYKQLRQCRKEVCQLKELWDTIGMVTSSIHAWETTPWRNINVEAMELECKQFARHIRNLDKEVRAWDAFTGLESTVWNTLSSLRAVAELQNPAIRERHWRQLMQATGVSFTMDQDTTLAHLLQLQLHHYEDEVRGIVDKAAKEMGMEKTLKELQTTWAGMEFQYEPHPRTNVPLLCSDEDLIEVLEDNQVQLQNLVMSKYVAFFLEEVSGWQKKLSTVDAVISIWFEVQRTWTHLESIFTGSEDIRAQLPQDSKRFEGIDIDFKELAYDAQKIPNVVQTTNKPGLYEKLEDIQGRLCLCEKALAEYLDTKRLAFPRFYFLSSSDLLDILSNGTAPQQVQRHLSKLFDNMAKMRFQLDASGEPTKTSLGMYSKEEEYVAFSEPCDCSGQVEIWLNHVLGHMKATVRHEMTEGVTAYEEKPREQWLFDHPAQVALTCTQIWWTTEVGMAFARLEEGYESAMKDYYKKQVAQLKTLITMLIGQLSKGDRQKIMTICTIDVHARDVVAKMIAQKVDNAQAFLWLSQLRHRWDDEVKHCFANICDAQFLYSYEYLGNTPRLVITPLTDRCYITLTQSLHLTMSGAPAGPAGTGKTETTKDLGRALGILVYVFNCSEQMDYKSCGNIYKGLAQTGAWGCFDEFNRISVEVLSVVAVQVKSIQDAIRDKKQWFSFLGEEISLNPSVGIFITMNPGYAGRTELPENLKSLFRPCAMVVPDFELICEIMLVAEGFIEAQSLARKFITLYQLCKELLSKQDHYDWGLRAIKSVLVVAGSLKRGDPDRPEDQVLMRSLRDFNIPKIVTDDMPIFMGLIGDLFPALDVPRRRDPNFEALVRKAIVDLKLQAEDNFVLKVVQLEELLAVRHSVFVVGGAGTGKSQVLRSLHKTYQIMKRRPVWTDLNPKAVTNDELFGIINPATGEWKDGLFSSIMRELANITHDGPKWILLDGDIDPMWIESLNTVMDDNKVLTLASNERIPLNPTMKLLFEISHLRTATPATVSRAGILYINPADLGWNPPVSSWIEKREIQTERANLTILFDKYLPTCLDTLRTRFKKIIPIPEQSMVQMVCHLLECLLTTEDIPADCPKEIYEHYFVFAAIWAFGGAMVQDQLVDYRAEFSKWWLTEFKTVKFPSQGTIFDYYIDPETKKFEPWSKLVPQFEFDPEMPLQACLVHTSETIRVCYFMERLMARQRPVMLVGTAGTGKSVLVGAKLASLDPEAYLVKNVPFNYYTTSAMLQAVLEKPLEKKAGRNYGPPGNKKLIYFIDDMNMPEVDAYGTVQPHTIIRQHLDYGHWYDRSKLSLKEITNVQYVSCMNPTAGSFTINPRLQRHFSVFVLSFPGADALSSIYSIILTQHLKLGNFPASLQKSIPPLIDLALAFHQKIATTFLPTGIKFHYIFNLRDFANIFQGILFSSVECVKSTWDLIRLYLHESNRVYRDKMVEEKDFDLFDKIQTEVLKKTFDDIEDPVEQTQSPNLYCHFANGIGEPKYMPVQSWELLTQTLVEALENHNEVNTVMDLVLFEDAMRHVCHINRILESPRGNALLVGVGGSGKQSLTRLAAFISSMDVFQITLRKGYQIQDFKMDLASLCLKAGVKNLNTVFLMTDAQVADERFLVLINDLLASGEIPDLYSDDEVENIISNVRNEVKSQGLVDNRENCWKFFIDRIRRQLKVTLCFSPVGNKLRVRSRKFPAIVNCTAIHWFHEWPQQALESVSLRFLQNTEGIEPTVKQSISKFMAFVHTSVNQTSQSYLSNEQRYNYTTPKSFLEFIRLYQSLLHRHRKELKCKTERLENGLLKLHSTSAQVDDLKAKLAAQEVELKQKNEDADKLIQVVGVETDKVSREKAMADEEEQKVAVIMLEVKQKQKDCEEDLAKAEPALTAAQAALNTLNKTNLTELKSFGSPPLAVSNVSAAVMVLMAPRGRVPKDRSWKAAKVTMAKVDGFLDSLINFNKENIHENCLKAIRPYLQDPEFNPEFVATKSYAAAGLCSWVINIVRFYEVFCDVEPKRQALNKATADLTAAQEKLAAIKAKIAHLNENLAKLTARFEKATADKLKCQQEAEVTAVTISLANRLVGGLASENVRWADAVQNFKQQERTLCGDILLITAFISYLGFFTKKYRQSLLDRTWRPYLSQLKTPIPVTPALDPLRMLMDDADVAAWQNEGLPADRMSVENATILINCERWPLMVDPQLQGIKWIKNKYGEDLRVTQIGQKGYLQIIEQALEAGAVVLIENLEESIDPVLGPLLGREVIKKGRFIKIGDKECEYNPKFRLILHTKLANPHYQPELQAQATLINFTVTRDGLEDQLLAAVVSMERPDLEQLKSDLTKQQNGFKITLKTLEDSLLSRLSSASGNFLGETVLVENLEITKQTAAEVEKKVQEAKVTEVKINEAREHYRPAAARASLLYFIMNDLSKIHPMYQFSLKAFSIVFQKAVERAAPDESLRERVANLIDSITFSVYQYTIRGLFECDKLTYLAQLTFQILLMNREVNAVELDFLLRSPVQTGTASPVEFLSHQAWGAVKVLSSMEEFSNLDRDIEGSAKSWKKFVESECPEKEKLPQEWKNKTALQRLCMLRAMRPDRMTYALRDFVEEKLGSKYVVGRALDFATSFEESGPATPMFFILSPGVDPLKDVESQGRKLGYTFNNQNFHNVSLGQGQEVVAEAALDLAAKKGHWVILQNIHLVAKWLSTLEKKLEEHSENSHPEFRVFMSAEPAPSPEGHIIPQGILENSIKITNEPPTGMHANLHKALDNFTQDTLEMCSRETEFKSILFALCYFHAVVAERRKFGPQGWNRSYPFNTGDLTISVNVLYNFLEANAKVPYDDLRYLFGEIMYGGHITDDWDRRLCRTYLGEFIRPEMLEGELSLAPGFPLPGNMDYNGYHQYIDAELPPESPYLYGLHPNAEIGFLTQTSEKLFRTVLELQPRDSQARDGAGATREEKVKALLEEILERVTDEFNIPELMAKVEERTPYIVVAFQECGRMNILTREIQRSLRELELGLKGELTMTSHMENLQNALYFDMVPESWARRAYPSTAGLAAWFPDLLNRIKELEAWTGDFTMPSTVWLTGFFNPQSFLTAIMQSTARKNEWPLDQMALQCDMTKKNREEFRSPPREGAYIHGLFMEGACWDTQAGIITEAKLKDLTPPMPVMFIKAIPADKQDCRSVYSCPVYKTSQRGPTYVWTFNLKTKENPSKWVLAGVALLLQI
UniProt Q6P158: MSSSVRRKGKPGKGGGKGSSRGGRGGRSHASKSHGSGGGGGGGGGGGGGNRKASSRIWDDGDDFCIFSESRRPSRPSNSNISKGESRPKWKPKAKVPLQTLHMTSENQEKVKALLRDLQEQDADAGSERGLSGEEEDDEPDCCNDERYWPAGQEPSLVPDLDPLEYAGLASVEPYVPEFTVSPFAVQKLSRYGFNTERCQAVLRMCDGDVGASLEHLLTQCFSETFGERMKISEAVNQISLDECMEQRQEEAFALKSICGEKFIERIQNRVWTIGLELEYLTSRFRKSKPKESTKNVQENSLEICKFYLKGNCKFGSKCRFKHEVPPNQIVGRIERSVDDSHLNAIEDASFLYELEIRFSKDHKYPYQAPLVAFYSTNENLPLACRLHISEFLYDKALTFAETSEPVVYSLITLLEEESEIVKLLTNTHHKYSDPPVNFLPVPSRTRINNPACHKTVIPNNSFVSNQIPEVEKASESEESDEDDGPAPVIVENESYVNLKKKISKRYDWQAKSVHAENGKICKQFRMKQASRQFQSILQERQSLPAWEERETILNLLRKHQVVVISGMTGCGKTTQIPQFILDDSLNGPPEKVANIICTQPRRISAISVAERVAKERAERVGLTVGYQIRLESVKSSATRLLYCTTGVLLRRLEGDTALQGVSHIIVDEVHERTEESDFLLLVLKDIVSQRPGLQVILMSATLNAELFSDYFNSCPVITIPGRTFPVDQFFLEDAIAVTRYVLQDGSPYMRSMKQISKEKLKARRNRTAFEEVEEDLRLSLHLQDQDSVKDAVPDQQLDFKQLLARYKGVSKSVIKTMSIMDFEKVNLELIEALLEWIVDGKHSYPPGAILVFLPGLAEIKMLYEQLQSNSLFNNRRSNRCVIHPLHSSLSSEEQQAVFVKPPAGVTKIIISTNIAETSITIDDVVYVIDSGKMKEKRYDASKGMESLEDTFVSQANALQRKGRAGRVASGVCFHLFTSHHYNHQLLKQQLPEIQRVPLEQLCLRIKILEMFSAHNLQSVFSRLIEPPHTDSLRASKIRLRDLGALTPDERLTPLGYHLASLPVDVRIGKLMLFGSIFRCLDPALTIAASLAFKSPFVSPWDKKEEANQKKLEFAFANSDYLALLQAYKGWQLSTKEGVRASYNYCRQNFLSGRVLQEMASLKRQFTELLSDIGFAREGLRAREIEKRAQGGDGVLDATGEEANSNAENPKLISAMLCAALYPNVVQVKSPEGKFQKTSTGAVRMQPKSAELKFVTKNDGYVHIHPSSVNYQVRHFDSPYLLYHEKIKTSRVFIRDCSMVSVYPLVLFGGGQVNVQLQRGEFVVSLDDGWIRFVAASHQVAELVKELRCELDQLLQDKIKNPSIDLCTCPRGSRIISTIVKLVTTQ

Assays:
Assay in all cases: log2 fold change, soluble protein after heating vs DMSO (PISA); higher = thermal stabilisation; K562 cells, 10 uM, 30 min; active = over 0.2 and 3.5 SD of the protein, either way, in both replicates (recomputed)
saracatinib = compound: CN1CCN(CCOc2cc(OC3CCOCC3)c3c(Nc4c(Cl)ccc5c4OCO5)ncnc3c2)CC1 [saracatinib]
Procedure, shortened: (§1)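 Aliquots of K562 cells (2×10^6 cells/mL) treated with 10 μM compound for 30 min were heated for 3 min over 48°C-58°C. After pooling and extraction in PBS with 0.5% NP-40 at 4°C, soluble protein from a 21,000xg, 90 min spin was quantified by TMTpro 16plex LC-MS/MS with channel sums equalised. Thermal stability is expressed against control samples, from duplicates, as a log2 fold change.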

sotrastaurin = compound: CN1CCN(c2nc(C3=C(c4c[nH]c5ccccc45)C(=O)NC3=O)c3ccccc3n2)CC1 [sotrastaurin]
Procedure, shortened: as §1

alvocidib = compound: CN1CC[C@H](c2c(O)cc(O)c3c(=O)cc(-c4ccccc4Cl)oc23)[C@H](O)C1 [alvocidib]
Procedure, shortened: as §1

Tubastatin A = compound: CN1CCc2c(c3ccccc3n2Cc2ccc(C(=O)NO)cc2)C1 [Tubastatin A]
Procedure, shortened: as §1

[1] = compound: CNC(=O)C1=CC=CC=C1NC2=NC(=NC=C2Cl)NC3=C(C=C(C=C3)N4CCOCC4)OC
Procedure, shortened: as §1

defactinib = compound: CNC(=O)c1ccc(Nc2ncc(C(F)(F)F)c(NCc3nccnc3N(C)S(C)(=O)=O)n2)cc1 [defactinib]
Procedure, shortened: as §1

rucaparib = compound: CNCc1ccc(-c2[nH]c3cc(F)cc4c3c2CCNC4=O)cc1 [rucaparib]
Procedure, shortened: as §1

[2] = compound: CNc1nc(-c2ccc3c(N)n[nH]c3c2)cc(N2C[C@@H](C(=O)NC3CCCCC3)CC[C@H]2C)n1
Procedure, shortened: as §1

encorafenib = compound: COC(=O)N[C@@H](C)CNc1nccc(-c2cn(C(C)C)nc2-c2cc(Cl)cc(NS(C)(=O)=O)c2F)n1 [encorafenib]
Procedure, shortened: as §1

[3] = compound: COC(=O)[C@H](CCSC)NC(=O)C1=C(C=C(C=C1)NC[C@H](CS)N)C2=CC=CC=C2
Procedure, shortened: as §1

[4] = compound: COC1=CC=C(C=C1)CN2C=CC3=C2C=C(C=C3)C(=O)NO
Procedure, shortened: as §1

filanesib = compound: CON(C)C(=O)N1N=C(c2cc(F)ccc2F)S[C@@]1(CCCN)c1ccccc1 [filanesib]
Procedure, shortened: as §1

zotarolimus = compound: CO[C@H]1C[C@@H]2CC[C@@H](C)[C@@](O)(O2)C(=O)C(=O)N2CCCC[C@H]2C(=O)O[C@H]([C@H](C)C[C@@H]2CC[C@H](n3cnnn3)[C@H](OC)C2)CC(=O)[C@H](C)/C=C(\C)[C@@H](O)[C@@H](OC)C(=O)[C@H](C)C[C@H](C)/C=C/C=C/C=C/1C [zotarolimus]
Procedure, shortened: as §1

idasanutlin = compound: COc1cc(C(=O)O)ccc1NC(=O)[C@@H]1N[C@@H](CC(C)(C)C)[C@](C#N)(c2ccc(Cl)cc2F)[C@H]1c1cccc(Cl)c1F [idasanutlin]
Procedure, shortened: as §1

alisertib = compound: COc1cc(Nc2ncc3c(n2)-c2ccc(Cl)cc2C(c2c(F)cccc2OC)=NC3)ccc1C(=O)O [alisertib]
Procedure, shortened: as §1

[5] = compound: COc1cc2nc(-c3cc(F)ccc3O)nc(N[C@@H]3CNC[C@H]3C(C)(C)O)c2cc1OC
Procedure, shortened: as §1

gefitinib = compound: COc1cc2ncnc(Nc3ccc(F)c(Cl)c3)c2cc1OCCCN1CCOCC1 [gefitinib]
Procedure, shortened: as §1

[6] = compound: COc1cccc2cc(-c3nc([C@H]4CC[C@H](C(=O)O)CC4)n4ncnc(N)c34)[nH]c12
Procedure, shortened: as §1

lapatinib = compound: CS(=O)(=O)CCNCc1ccc(-c2ccc3ncnc(Nc4ccc(OCc5cccc(F)c5)c(Cl)c4)c3c2)o1 [lapatinib]
Procedure, shortened: as §1

pictilisib = compound: CS(=O)(=O)N1CCN(Cc2cc3nc(-c4cccc5[nH]ncc45)nc(N4CCOCC4)c3s2)CC1 [pictilisib]
Procedure, shortened: as §1

Measured: log2 fold change

DDRGK1 (UniProt Q96HY6)
inactive: saracatinib 0.092 | sotrastaurin -0.016 | alvocidib -0.013 | Tubastatin A -0.063 | [1] -0.035 | defactinib -0.029 | rucaparib 0.091 | [2] -0.032 | encorafenib -0.002 | [3] 0.08 | [4] 0.005 | filanesib 0.005 | zotarolimus -0.034 | idasanutlin 0.024 | alisertib -0.068 | [5] 0.048 | gefitinib 0 | [6] -0.002 | lapatinib 0.002 | pictilisib -0.011

DLGAP4 (UniProt Q9Y2H0)
inactive: saracatinib 0.036 | sotrastaurin 0.032 | alvocidib 0.046 | Tubastatin A -0.008 | [1] -0.025 | defactinib -0.032 | rucaparib -0.042 | [2] 0.016 | encorafenib 0.006 | [3] 0.006 | [4] 0.049 | filanesib -0.029 | zotarolimus -0.022 | idasanutlin 0.024 | alisertib 0.008 | [5] -0.036 | gefitinib 0.009 | [6] 0.03 | lapatinib 0.008 | pictilisib 0.051

DDX59 (UniProt Q5T1V6)
inactive: saracatinib 0.001 | sotrastaurin -0.002 | alvocidib -0.063 | Tubastatin A 0.014 | [1] 0.033 | defactinib -0.054 | rucaparib -0.065 | [2] -0.003 | encorafenib 0.118 | [3] -0.009 | [4] 0.023 | filanesib -0.001 | zotarolimus -0.004 | idasanutlin -0.084 | alisertib 0.012 | [5] 0.045 | gefitinib -0.034 | [6] 0.008 | lapatinib 0.022 | pictilisib 0.045

DDX19B (UniProt Q9UMR2)
inactive: saracatinib 0.02 | sotrastaurin -0.002 | alvocidib -0.059 | Tubastatin A -0.017 | [1] -0.039 | defactinib -0.056 | rucaparib -0.004 | [2] -0.012 | encorafenib 0.014 | [3] -0.03 | [4] 0.041 | filanesib -0.059 | zotarolimus 0.054 | idasanutlin -0.023 | alisertib -0.056 | [5] -0.008 | gefitinib -0.009 | [6] 0.004 | lapatinib -0.033 | pictilisib -0.009

DDX6 (UniProt P26196)
inactive: saracatinib -0.019 | sotrastaurin 0.003 | alvocidib -0.009 | Tubastatin A 0.005 | [1] 0.02 | defactinib 0 | rucaparib 0.062 | [2] 0.011 | encorafenib 0.007 | [3] -0.026 | [4] -0.022 | filanesib 0.053 | zotarolimus -0.027 | idasanutlin -0.024 | alisertib -0.048 | [5] 0.046 | gefitinib -0.015 | [6] -0.059 | lapatinib -0.001 | pictilisib -0.004

DHX15 (UniProt O43143)
inactive: saracatinib 0.017 | sotrastaurin 0.051 | alvocidib -0.006 | Tubastatin A -0.048 | [1] 0.005 | defactinib 0.044 | rucaparib -0.002 | [2] 0.024 | encorafenib -0.001 | [3] 0.009 | [4] -0.031 | filanesib -0.015 | zotarolimus 0.01 | idasanutlin -0.011 | alisertib -0.045 | [5] 0.046 | gefitinib -0.005 | [6] 0.017 | lapatinib -0.034 | pictilisib 0.01

DNAH9 (UniProt Q9NYC9)
inactive: saracatinib 0.085 | sotrastaurin 0.065 | alvocidib 0.011 | Tubastatin A 0.007 | [1] -0.022 | defactinib -0.009 | rucaparib -0.012 | [2] -0.065 | encorafenib 0.021 | [3] 0.01 | [4] -0.026 | filanesib -0.051 | zotarolimus 0.003 | idasanutlin 0.003 | alisertib -0.022 | [5] 0.038 | gefitinib -0.048 | [6] 0.034 | lapatinib -0.014 | pictilisib 0.022

DHRS4L1 (UniProt P0CG22)
inactive: saracatinib 0.016 | sotrastaurin 0.006 | alvocidib 0.002 | Tubastatin A -0.051 | [1] 0.03 | defactinib 0.013 | rucaparib 0.007 | [2] -0.029 | encorafenib -0.01 | [3] 0.006 | [4] 0.017 | filanesib -0.061 | zotarolimus -0.017 | idasanutlin -0.096 | alisertib 0.051 | [5] 0.023 | gefitinib 0.032 | [6] 0.045 | lapatinib -0.069 | pictilisib 0.013

DERL1 (UniProt Q9BUN8)
inactive: saracatinib 0.073 | sotrastaurin 0.046 | alvocidib 0.099 | Tubastatin A -0.071 | [1] -0.067 | defactinib 0.022 | rucaparib 0.02 | [2] -0.09 | encorafenib -0.034 | [3] 0.004 | [4] 0.033 | filanesib -0.071 | zotarolimus -0.026 | idasanutlin 0.043 | alisertib -0.228 | [5] -0.062 | gefitinib 0.073 | [6] 0.031 | lapatinib -0.007 | pictilisib -0.01

DDX19A (UniProt Q9NUU7)
inactive: saracatinib 0.019 | sotrastaurin 0.005 | alvocidib -0.106 | Tubastatin A -0.044 | [1] -0.033 | defactinib -0.089 | rucaparib -0.008 | [2] 0.015 | encorafenib 0.04 | [3] -0.037 | [4] 0.019 | filanesib -0.069 | zotarolimus 0.033 | idasanutlin -0.087 | alisertib -0.03 | [5] -0.077 | gefitinib 0.014 | [6] 0.048 | lapatinib 0.085 | pictilisib -0.018

DHX57 (UniProt Q6P158)
inactive: saracatinib -0.058 | sotrastaurin 0.062 | alvocidib 0.155 | Tubastatin A 0.135 | [1] 0.071 | defactinib 0.132 | rucaparib 0.105 | [2] 0.058 | encorafenib 0.106 | [3] 0.018 | [4] -0.001 | filanesib 0.172 | zotarolimus 0.014 | idasanutlin 0.129 | alisertib -0.184 | [5] -0.02 | gefitinib -0.048 | [6] -0.153 | lapatinib 0.097 | pictilisib -0.071

DIS3L2 (UniProt Q8IYB7)
inactive: saracatinib 0.07 | sotrastaurin 0.097 | alvocidib -0.011 | Tubastatin A 0.109 | [1] 0.079 | defactinib -0.057 | rucaparib 0.009 | [2] -0.015 | encorafenib -0.013 | [3] -0.052 | [4] -0.067 | filanesib 0.129 | zotarolimus -0.044 | idasanutlin 0.059 | alisertib -0.067 | [5] 0.155 | gefitinib 0.006 | [6] 0.014 | lapatinib 0 | pictilisib 0.041

DIS3 (UniProt Q9Y2L1)
inactive: saracatinib -0.054 | sotrastaurin -0.091 | alvocidib -0.159 | Tubastatin A 0.113 | [1] -0.084 | defactinib -0.088 | rucaparib -0.035 | [2] 0.034 | encorafenib 0.046 | [3] -0.046 | [4] 0.03 | filanesib -0.032 | zotarolimus 0.035 | idasanutlin -0.035 | alisertib 0.09 | [5] -0.012 | gefitinib 0.01 | [6] -0.022 | lapatinib 0.013 | pictilisib 0.051

DDX23 (UniProt Q9BUQ8)
inactive: saracatinib -0.048 | sotrastaurin 0.031 | alvocidib 0.192 | Tubastatin A -0.055 | [1] 0.047 | defactinib 0.26 | rucaparib 0.089 | [2] -0.05 | encorafenib 0.038 | [3] 0.026 | [4] -0.043 | filanesib 0.282 | zotarolimus -0.067 | idasanutlin 0.201 | alisertib -0.124 | [5] 0.058 | gefitinib -0.079 | [6] -0.057 | lapatinib 0.226 | pictilisib 0.095

DNAJA1 (UniProt P31689)
inactive: saracatinib -0.022 | sotrastaurin 0.012 | alvocidib -0.009 | Tubastatin A 0 | [1] -0.02 | defactinib -0.031 | rucaparib -0.015 | [2] -0.037 | encorafenib 0.003 | [3] 0.008 | [4] -0.065 | filanesib -0.006 | zotarolimus -0.012 | idasanutlin -0.015 | alisertib 0 | [5] -0.011 | gefitinib 0.011 | [6] 0.055 | lapatinib -0.023 | pictilisib -0.034

DNAH8 (UniProt Q96JB1)
inactive: saracatinib -0.123 | sotrastaurin -0.024 | alvocidib 0.062 | Tubastatin A -0.022 | [1] -0.125 | defactinib -0.033 | rucaparib -0.327 | [2] -0.132 | encorafenib -0.045 | [3] -0.035 | [4] 0.029 | filanesib 0.015 | zotarolimus -0.073 | idasanutlin -0.016 | alisertib 0.078 | [5] 0.015 | gefitinib -0.052 | [6] 0.222 | lapatinib 0.031

Three consecutive entries out of the list so far, for reference:
DHX57 (UniProt Q6P158)
inactive: saracatinib -0.058 | sotrastaurin 0.062 | alvocidib 0.155 | Tubastatin A 0.135 | [1] 0.071 | defactinib 0.132 | rucaparib 0.105 | [2] 0.058 | encorafenib 0.106 | [3] 0.018 | [4] -0.001 | filanesib 0.172 | zotarolimus 0.014 | idasanutlin 0.129 | alisertib -0.184 | [5] -0.02 | gefitinib -0.048 | [6] -0.153 | lapatinib 0.097 | pictilisib -0.071

DIS3L2 (UniProt Q8IYB7)
inactive: saracatinib 0.07 | sotrastaurin 0.097 | alvocidib -0.011 | Tubastatin A 0.109 | [1] 0.079 | defactinib -0.057 | rucaparib 0.009 | [2] -0.015 | encorafenib -0.013 | [3] -0.052 | [4] -0.067 | filanesib 0.129 | zotarolimus -0.044 | idasanutlin 0.059 | alisertib -0.067 | [5] 0.155 | gefitinib 0.006 | [6] 0.014 | lapatinib 0 | pictilisib 0.041

DIS3 (UniProt Q9Y2L1)
inactive: saracatinib -0.054 | sotrastaurin -0.091 | alvocidib -0.159 | Tubastatin A 0.113 | [1] -0.084 | defactinib -0.088 | rucaparib -0.035 | [2] 0.034 | encorafenib 0.046 | [3] -0.046 | [4] 0.03 | filanesib -0.032 | zotarolimus 0.035 | idasanutlin -0.035 | alisertib 0.09 | [5] -0.012 | gefitinib 0.01 | [6] -0.022 | lapatinib 0.013 | pictilisib 0.051
